Results reported in paper doi:10.1101/2021.11.16.468784.
These are yes or no findings as the source states them, for the method shown. Binding seen in cells or lysates may run through a third protein. Some binding calls cover weakened binding; strength is not graded here.

Amino acid sequences for entries named in this document (tags omitted).
UniProt P43354: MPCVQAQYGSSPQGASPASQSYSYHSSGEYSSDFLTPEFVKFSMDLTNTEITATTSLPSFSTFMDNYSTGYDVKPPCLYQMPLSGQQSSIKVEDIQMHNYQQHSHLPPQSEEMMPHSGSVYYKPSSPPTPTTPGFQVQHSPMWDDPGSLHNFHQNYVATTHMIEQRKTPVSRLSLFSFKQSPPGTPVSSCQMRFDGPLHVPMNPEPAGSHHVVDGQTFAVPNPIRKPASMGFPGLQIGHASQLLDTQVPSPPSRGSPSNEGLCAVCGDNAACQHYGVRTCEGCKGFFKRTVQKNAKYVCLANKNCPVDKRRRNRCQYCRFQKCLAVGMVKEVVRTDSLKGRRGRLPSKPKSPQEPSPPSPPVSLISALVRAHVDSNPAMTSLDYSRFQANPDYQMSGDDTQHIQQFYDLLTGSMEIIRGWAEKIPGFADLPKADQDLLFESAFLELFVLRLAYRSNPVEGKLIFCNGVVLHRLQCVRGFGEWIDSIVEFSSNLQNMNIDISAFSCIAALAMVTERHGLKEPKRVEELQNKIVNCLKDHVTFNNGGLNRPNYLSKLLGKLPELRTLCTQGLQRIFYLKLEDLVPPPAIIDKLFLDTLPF
UniProt Q13547: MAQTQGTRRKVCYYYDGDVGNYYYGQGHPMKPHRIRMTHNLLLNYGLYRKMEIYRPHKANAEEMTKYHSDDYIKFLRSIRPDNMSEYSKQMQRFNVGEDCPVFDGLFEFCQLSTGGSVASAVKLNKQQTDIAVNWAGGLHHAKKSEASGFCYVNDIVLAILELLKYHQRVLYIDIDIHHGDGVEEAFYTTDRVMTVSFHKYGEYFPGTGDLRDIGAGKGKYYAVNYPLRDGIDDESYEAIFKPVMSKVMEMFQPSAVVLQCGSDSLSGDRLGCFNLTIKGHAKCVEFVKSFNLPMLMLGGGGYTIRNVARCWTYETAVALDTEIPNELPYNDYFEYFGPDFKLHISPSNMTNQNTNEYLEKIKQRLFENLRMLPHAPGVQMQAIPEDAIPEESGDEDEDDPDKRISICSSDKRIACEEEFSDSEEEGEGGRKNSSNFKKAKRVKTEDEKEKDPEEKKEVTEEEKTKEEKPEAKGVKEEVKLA
UniProt Q9UKL0: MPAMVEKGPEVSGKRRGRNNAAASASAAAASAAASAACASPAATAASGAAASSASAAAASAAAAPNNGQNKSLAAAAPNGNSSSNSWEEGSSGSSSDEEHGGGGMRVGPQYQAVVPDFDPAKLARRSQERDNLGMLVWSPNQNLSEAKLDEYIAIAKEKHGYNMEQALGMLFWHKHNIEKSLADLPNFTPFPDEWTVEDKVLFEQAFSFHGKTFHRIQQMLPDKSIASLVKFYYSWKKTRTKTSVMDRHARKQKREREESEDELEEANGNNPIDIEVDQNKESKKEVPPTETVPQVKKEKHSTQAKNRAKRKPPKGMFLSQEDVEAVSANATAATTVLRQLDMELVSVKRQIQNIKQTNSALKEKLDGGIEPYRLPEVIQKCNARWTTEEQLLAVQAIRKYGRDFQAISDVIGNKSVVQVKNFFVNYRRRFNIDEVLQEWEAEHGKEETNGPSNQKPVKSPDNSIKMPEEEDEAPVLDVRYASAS
UniProt Q96KQ7: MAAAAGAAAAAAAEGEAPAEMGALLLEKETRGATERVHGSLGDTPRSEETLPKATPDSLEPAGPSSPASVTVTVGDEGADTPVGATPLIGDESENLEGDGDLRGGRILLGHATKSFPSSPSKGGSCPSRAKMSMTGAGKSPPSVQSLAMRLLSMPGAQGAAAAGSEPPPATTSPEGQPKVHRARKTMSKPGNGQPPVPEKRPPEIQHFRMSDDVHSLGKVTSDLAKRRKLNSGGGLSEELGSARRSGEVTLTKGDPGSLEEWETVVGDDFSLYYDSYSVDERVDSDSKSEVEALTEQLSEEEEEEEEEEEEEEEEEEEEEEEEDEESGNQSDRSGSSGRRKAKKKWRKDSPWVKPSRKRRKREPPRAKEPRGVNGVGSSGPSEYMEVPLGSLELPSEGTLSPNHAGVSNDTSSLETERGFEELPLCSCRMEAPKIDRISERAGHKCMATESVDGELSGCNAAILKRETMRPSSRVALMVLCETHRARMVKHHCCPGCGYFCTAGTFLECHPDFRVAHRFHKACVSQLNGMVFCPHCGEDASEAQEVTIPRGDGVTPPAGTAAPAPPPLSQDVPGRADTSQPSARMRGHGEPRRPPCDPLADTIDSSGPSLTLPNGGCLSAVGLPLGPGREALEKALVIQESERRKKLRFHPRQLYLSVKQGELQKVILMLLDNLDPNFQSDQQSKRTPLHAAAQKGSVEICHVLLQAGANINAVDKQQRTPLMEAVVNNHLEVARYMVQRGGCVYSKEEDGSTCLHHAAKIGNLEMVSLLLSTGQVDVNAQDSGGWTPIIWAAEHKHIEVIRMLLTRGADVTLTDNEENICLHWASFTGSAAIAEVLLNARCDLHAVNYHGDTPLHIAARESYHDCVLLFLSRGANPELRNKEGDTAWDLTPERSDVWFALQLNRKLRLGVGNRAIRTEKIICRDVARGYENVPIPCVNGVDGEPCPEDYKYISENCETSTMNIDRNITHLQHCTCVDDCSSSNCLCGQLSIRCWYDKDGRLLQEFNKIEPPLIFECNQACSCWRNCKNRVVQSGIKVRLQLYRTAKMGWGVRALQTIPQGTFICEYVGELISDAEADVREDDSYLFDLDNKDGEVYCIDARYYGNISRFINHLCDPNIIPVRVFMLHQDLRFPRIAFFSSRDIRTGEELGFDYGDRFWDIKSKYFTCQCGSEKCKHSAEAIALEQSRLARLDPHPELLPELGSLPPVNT

target: 3X-FLAG-tagged Nurr1 (NR4A2) (human) (UniProt P43354); assay: co-IP

Substance | binding
HDAC1 (from UniProt Q13547 1-482) | binds
corepressor 1 of REST (CoREST) (from UniProt Q9UKL0 1-485) | binds
euchromatic histone lysine N-methyltransferase 2 (EHMT2), also known as G9a (from UniProt Q96KQ7 1-1210) | binds
